Measurements published in patent US8741944B2, “Anti-infective agents against intracellular pathogens” (priority 2007, dated 2014).
Like-named read-outs stand apart in the source and are kept apart here.

Columns and labels:
M14 (Melanoma) = assay: NCI DTP tumor cell line screen (SRB), M14
[1] = test system: EKVX (Non-Small Cell Lung Cancer); assay: NCI DTP tumor cell line screen (SRB), EKVX
HT29 (Colon Cancer) = assay: NCI DTP tumor cell line screen (SRB), HT29
A498 (Renal Cancer) = assay: NCI DTP tumor cell line screen (SRB), A498
MCF7 (Breast Cancer) = assay: NCI DTP tumor cell line screen (SRB), MCF7
K-562 (Leukemia) = assay: NCI DTP tumor cell line screen (SRB), K-562
UO-31 (Renal Cancer) = assay: NCI DTP tumor cell line screen (SRB), UO-31
OVCAR-5 (Ovarian Cancer) = assay: NCI DTP tumor cell line screen (SRB), OVCAR-5
[2] = test system: NCI-H460 (Non-Small Cell Lung Cancer)
RPMI-8226 (Leukemia) = assay: NCI DTP tumor cell line screen (SRB), RPMI-8226

With “4-[5-(2-Phenanthrenyl)-3-(trifluoromethyl)-1H-pyrazol-1-yl]-phenyl -guanidine [Compound 71]” as the substance, how does the “Mean Optical Densities” value (M14 (Melanoma); M14, Log10 Concentration −4.0) read?
Its value is 0.210.

What about the “Mean Optical Densities” value (M14 (Melanoma); M14, Log10 Concentration −5.0) of the same substance?
The value was −0.004.

And the “Mean Optical Densities” value (M14 (Melanoma); M14, Log10 Concentration −6.0)?
The value was 0.816.

What about the “Mean Optical Densities” value (M14 (Melanoma); M14, Log10 Concentration −7.0) of the same substance?
The value was 0.823.

What about the “Mean Optical Densities” value (M14 (Melanoma); M14, Log10 Concentration −8.0) of the same substance?
The value was 0.772.

What about the “Mean Optical Densities” value ([1]; Log10 Concentration −4.0) of the same substance?
Its value is 0.145.

And the “Mean Optical Densities” value ([1]; Log10 Concentration −5.0)?
The value was −0.008.

And the “Mean Optical Densities” value ([1]; Log10 Concentration −6.0)?
The value was 0.711.

What about the “Mean Optical Densities” value ([1]; Log10 Concentration −7.0) of the same substance?
Its value is 0.737.

What about the “Mean Optical Densities” value ([1]; Log10 Concentration −8.0) of the same substance?
The value was 0.713.

And the “Mean Optical Densities” value (HT29 (Colon Cancer); HT29, Log10 Concentration −4.0)?
The value was 0.003.

What about the “Mean Optical Densities” value (HT29 (Colon Cancer); HT29, Log10 Concentration −5.0) of the same substance?
The value was −0.054.

What about the “Mean Optical Densities” value (HT29 (Colon Cancer); HT29, Log10 Concentration −6.0) of the same substance?
The value was 1.136.

What about the “Mean Optical Densities” value (HT29 (Colon Cancer); HT29, Log10 Concentration −7.0) of the same substance?
Its value is 1.238.

And the “Mean Optical Densities” value (HT29 (Colon Cancer); HT29, Log10 Concentration −8.0)?
Its value is 1.276.

What about the “Mean Optical Densities” value (A498 (Renal Cancer); A498, Log10 Concentration −4.0) of the same substance?
Its value is 0.540.

What about the “Mean Optical Densities” value (A498 (Renal Cancer); A498, Log10 Concentration −5.0) of the same substance?
Its value is 1.903.

What about the “Mean Optical Densities” value (A498 (Renal Cancer); A498, Log10 Concentration −6.0) of the same substance?
The value was 1.869.

And the “Mean Optical Densities” value (A498 (Renal Cancer); A498, Log10 Concentration −7.0)?
The value was 2.087.

What about the “Mean Optical Densities” value (A498 (Renal Cancer); A498, Log10 Concentration −8.0) of the same substance?
The value was 2.413.

And the “Mean Optical Densities” value (MCF7 (Breast Cancer); Log10 Concentration −4.0)?
The value was 0.229.

And the “Mean Optical Densities” value (MCF7 (Breast Cancer); Log10 Concentration −5.0)?
Its value is 0.073.

And the “Mean Optical Densities” value (MCF7 (Breast Cancer); Log10 Concentration −6.0)?
The value was 1.507.

What about the “Mean Optical Densities” value (MCF7 (Breast Cancer); Log10 Concentration −7.0) of the same substance?
Its value is 1.340.

What about the “Mean Optical Densities” value (MCF7 (Breast Cancer); Log10 Concentration −8.0) of the same substance?
Its value is 1.467.

And the “Mean Optical Densities” value (K-562 (Leukemia); K-562, Log10 Concentration −4.0)?
The value was 0.119.

What about the “Mean Optical Densities” value (K-562 (Leukemia); K-562, Log10 Concentration −5.0) of the same substance?
The value was 0.126.

And the “Mean Optical Densities” value (K-562 (Leukemia); K-562, Log10 Concentration −6.0)?
The value was 0.438.

And the “Mean Optical Densities” value (K-562 (Leukemia); K-562, Log10 Concentration −7.0)?
The value was 1.283.

And the “Mean Optical Densities” value (K-562 (Leukemia); K-562, Log10 Concentration −8.0)?
Its value is 1.338.

What about the “Mean Optical Densities” value (UO-31 (Renal Cancer); UO-31, Log10 Concentration −4.0) of the same substance?
Its value is 0.288.

What about the “Mean Optical Densities” value (UO-31 (Renal Cancer); UO-31, Log10 Concentration −5.0) of the same substance?
The value was −0.030.

And the “Mean Optical Densities” value (UO-31 (Renal Cancer); UO-31, Log10 Concentration −6.0)?
Its value is 1.332.

And the “Mean Optical Densities” value (UO-31 (Renal Cancer); UO-31, Log10 Concentration −7.0)?
The value was 1.407.

And the “Mean Optical Densities” value (UO-31 (Renal Cancer); UO-31, Log10 Concentration −8.0)?
Its value is 1.375.

What about the “Mean Optical Densities” value (OVCAR-5 (Ovarian Cancer); OVCAR-5, Log10 Concentration −4.0) of the same substance?
The value was 0.474.

And the “Mean Optical Densities” value (OVCAR-5 (Ovarian Cancer); OVCAR-5, Log10 Concentration −5.0)?
Its value is −0.033.

And the “Mean Optical Densities” value (OVCAR-5 (Ovarian Cancer); OVCAR-5, Log10 Concentration −6.0)?
Its value is 1.559.

What about the “Mean Optical Densities” value (OVCAR-5 (Ovarian Cancer); OVCAR-5, Log10 Concentration −7.0) of the same substance?
Its value is 1.437.

What about the “Mean Optical Densities” value (OVCAR-5 (Ovarian Cancer); OVCAR-5, Log10 Concentration −8.0) of the same substance?
Its value is 1.538.

And the “Mean Optical Densities” value ([2]; NCI-H460, Log10 Concentration −4.0)?
The value was 0.257.

And the “Mean Optical Densities” value ([2]; NCI-H460, Log10 Concentration −5.0)?
Its value is 0.011.

And the “Mean Optical Densities” value ([2]; NCI-H460, Log10 Concentration −6.0)?
Its value is 1.650.

And the “Mean Optical Densities” value ([2]; NCI-H460, Log10 Concentration −7.0)?
Its value is 1.658.

And the “Mean Optical Densities” value ([2]; NCI-H460, Log10 Concentration −8.0)?
The value was 1.654.

And the “Mean Optical Densities” value (RPMI-8226 (Leukemia); RPMI-8226, Log10 Concentration −4.0)?
Its value is 0.176.

And the “Mean Optical Densities” value (RPMI-8226 (Leukemia); RPMI-8226, Log10 Concentration −5.0)?
Its value is 0.016.

And the “Mean Optical Densities” value (RPMI-8226 (Leukemia); RPMI-8226, Log10 Concentration −6.0)?
The value was 0.513.

And the “Mean Optical Densities” value (RPMI-8226 (Leukemia); RPMI-8226, Log10 Concentration −7.0)?
The value was 0.559.

And the “Mean Optical Densities” value (RPMI-8226 (Leukemia); RPMI-8226, Log10 Concentration −8.0)?
Its value is 0.536.
